According to publication PMC6639074:
No constants are given. Whether binding was seen depends on the method and setting. Binding seen in cells or lysates may run through a third protein. These calls come from enrichment with a bait or labelling near it, and not all partners need be listed. Each block holds one binder with its values, some of them ahead of it.

Amino acid sequences for entries named in this document (tags omitted). A change or cut given only in a name is not applied to a line headed by its entry. Chains listed by the source or under a name are the forms on record and can include a tag or linker.
UniProt P61026: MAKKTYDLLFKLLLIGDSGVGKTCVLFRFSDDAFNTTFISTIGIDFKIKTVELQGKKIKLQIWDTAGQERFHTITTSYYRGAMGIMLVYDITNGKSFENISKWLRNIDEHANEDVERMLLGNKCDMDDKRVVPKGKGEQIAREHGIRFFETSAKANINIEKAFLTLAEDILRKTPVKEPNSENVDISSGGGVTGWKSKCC
UniProt P61006: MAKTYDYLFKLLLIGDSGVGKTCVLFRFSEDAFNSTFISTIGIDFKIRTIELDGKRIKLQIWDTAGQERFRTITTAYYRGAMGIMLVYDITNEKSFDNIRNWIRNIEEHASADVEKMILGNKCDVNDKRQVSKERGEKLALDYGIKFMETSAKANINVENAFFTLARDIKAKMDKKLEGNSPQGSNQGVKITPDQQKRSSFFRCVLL
UniProt P60953: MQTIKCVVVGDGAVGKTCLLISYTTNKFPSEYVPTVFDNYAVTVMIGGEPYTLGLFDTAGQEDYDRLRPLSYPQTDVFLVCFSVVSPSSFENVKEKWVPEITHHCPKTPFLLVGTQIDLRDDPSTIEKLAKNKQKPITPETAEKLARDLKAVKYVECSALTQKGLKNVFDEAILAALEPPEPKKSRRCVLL
N-Ras(S17N)-BirA*-HA-MAO (P01111, form named): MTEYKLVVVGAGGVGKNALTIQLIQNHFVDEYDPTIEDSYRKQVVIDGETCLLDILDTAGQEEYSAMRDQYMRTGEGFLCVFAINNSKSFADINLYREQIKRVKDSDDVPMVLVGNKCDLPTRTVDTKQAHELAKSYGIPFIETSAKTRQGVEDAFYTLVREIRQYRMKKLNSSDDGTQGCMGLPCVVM
N-Ras(G12D)-BirA*-HA-MAO (P01111, form named): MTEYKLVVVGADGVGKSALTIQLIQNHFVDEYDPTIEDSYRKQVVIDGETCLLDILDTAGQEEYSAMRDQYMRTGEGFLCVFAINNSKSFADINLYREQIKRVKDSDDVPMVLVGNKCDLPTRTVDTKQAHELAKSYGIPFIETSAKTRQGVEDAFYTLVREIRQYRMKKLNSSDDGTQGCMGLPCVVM

Legend:
Experiment in all cases: proximity labelling; MitoID: GTPase-BirA*-HA-MAO chimera on mitochondria of transiently transfected HEK293T cells, 50 uM biotin 18 h, streptavidin beads, mass spectrometry, biological triplicates; hits by WD scores and volcano plots against the GDP-locked forms
[1] = molecular target: Rab10(Q68L)-BirA*-HA-MAO (human) (UniProt P61026)
[2] = molecular target: Rab8A(Q67L)-BirA*-HA-MAO (human) (UniProt P61006)
[3] = molecular target: Cdc42(G12V)-BirA*-HA-MAO (human) (UniProt P60953)
[4] = molecular target: N-Ras(S17N)-BirA*-HA-MAO (human) (UniProt P01111)
[5] = molecular target: N-Ras(G12D)-BirA*-HA-MAO (human) (UniProt P01111)

binding [1]: binds
binding [2]: binds
B1: ARHGEF10 (protein, UniProt O15013 1-1369)
chain: MRPPGFLSRAPSLNRAERGIWSCSMDQREPLPPAPAENEMKYDTNNNEEEEGEQFDFDSGDEIPEADRQAPSAPETGGAGASEAPAPTGGEDGAGAETTPVAEPTKLVLPMKVNPYSVIDITPFQEDQPPTPVPSAEEENVGLHVPCGYLVPVPCGYAVPSNLPLLLPAYSSPVIICATSLDEEAETPEVTEDRQPNSLSSEEPPTSEDQVGREDSALARWAADPANTAWMENPEEAIYDDVPRENSDSEPDEMIYDDVENGDEGGNSSLEYGWSSSEFESYEEQSDSECKNGIPRSFLRSNHKKQLSHDLTRLKEHYEKKMRDLMASTVGVVEIQQLRQKHELKMQKLVKAAKDGTKDGLERTRAAVKRGRSFIRTKSLIAQDHRSSLEEEQNLFIDVDCKHPEAILTPMPEGLSQQQVVRRYILGSVVDSEKNYVDALKRILEQYEKPLSEMEPKVLSERKLKTVFYRVKEILQCHSLFQIALASRVSEWDSVEMIGDVFVASFSKSMVLDAYSEYVNNFSTAVAVLKKTCATKPAFLEFLKQEQEASPDRTTLYSLMMKPIQRFPQFILLLQDMLKNTSKGHPDRLPLQMALTELETLAEKLNERKRDADQRCEVKQIAKAINERYLNKLLSSGSRYLIRSDDMIETVYNDRGEIVKTKERRVFMLNDVLMCATVSSRPSHDSRVMSSQRYLLKWSVPLGHVDAIEYGSSAGTGEHSRHLAVHPPESLAVVANAKPNKVYMGPGQLYQDLQNLLHDLNVIGQITQLIGNLKGNYQNLNQSVAHDWTSGLQRLILKKEDEIRAADCCRIQLQLPGKQDKSGRPTFFTAVFNTFTPAIKESWVNSLQMAKLALEEENHMGWFCVEDDGNHIKKEKHPLLVGHMPVMVAKQQEFKIECAAYNPEPYLNNESQPDSFSTAHGFLWIGSCTHQMGQIAIVSFQNSTPKVIECFNVESRILCMLYVPVEEKRREPGAPPDPETPAVRASDVPTICVGTEEGSISIYKSSQGSKKVRLQHFFTPEKSTVMSLACTSQSLYAGLVNGAVASYARAPDGSWDSEPQKVIKLGVLPVRSLLMMEDTLWAASGGQVFIISVETHAVEGQLEAHQEEGMVISHMAVSGVGIWIAFTSGSTLRLFHTETLKHLQDINIATPVHNMLPGHQRLSVTSLLVCHGLLMVGTSLGVLVALPVPRLQGIPKVTGRGMVSYHAHNSPVKFIVLATALHEKDKDKSRDSLAPGPEPQDEDQKDALPSGGAGSSLSQGDPDAAIWLGDSLGSMTQKSDLSSSSGSLSLSHGSSSLEHRSEDSTIYDLLKDPVSLRSKARRAKKAKASSALVVCGGQGHRRVHRKARQPHQEELAPTVMVWQIPLLNI

binding [3]: binds
B2: PLEKHG4 (protein, UniProt Q58EX7 1-1191)
chain: MERPLENGDESPDSQGHATDWRFAVCSFRDAWEEEEPASQMHVKDPGPPRPPAGATQDEELQGSPLSRKFQLPPAADESGDAQRGTVESSSVLSEGPGPSGVESLLCPMSSHLSLAQGESDTPGVGLVGDPGPSRAMPSGLSPGALDSDPVGLGDPLSEISKLLEAAPSGSGLPKPADCLLAQDLCWELLASGMATLPGTRDVQGRAVLLLCAHSPAWLQSECSSQELIRLLLYLRSIPRPEVQALGLTVLVDARICAPSSSLFSGLSQLQEAAPGAVYQVLLVGSTLLKEVPSGLQLEQLPSQSLLTHIPTAGLPTSLGGGLPYCHQAWLDFRRRLEALLQNCQAACALLQGAIESVKAVPQPMEPGEVGQLLQQTEVLMQQVLDSPWLAWLQCQGGRELTWLKQEVPEVTLSPDYRTAMDKADELYDRVDGLLHQLTLQSNQRIQALELVQTLEARESGLHQIEVWLQQVGWPALEEAGEPSLDMLLQAQGSFQELYQVAQEQVRQGEKFLQPLTGWEAAELDPPGARFLALRAQLTEFSRALAQRCQRLADAERLFQLFREALTWAEEGQRVLAELEQERPGVVLQQLQLHWTRHPDLPPAHFRKMWALATGLGSEAIRQECRWAWARCQDTWLALDQKLEASLKLPPVGSTASLCVSQVPAAPAHPPLRKAYSFDRNLGQSLSEPACHCHHAATIAACRRPEAGGGALPQASPTVPPPGSSDPRSLNRLQLVLAEMVATEREYVRALEYTMENYFPELDRPDVPQGLRGQRAHLFGNLEKLRDFHCHFFLRELEACTRHPPRVAYAFLRHRVQFGMYALYSKNKPRSDALMSSYGHTFFKDKQQALGDHLDLASYLLKPIQRMGKYALLLQELARACGGPTQELSALREAQSLVHFQLRHGNDLLAMDAIQGCDVNLKEQGQLVRQDEFVVRTGRHKSVRRIFLFEELLLFSKPRHGPTGVDTFAYKRSFKMADLGLTECCGNSNLRFEIWFRRRKARDTFVLQASSLAIKQAWTADISHLLWRQAVHNKEVRMAEMVSMGVGNKAFRDIAPSEEAINDRTVNYVLKCREVRSRASIAVAPFDHDSLYLGASNSLPGDPASCSVLGSLNLHLYRDPALLGLRCPLYPSFPEEAALEAEAELGGQPSLTAEDSEISSQCPSASGSSGSDSSCVSGQALGRGLEDLPCV

binding [4]: binds
B3: RAP1GDS1 (protein, UniProt P52306 1-607)
chain: MDNLSDTLKKLKITAVDKTEDSLEGCLDCLLQALAQNNTETSEKIQASGILQLFASLLTPQSSCKAKVANIIAEVAKNEFMRIPCVDAGLISPLVQLLNSKDQEVLLQTGRALGNICYDSHEGRSAVDQAGGAQIVIDHLRSLCSITDPANEKLLTVFCGMLMNYSNENDSLQAQLINMGVIPTLVKLLGIHCQNAALTEMCLVAFGNLAELESSKEQFASTNIAEELVKLFKKQIEHDKREMIFEVLAPLAENDAIKLQLVEAGLVECLLEIVQQKVDSDKEDDITELKTGSDLMVLLLLGDESMQKLFEGGKGSVFQRVLSWIPSNNHQLQLAGALAIANFARNDANCIHMVDNGIVEKLMDLLDRHVEDGNVTVQHAALSALRNLAIPVINKAKMLSAGVTEAVLKFLKSEMPPVQFKLLGTLRMLIDAQAEAAEQLGKNVKLVERLVEWCEAKDHAGVMGESNRLLSALIRHSKSKDVIKTIVQSGGIKHLVTMATSEHVIMQNEALVALALIAALELGTAEKDLESAKLVQILHRLLADERSAPEIKYNSMVLICALMGSECLHKEVQDLAFLDVVSKLRSHENKSVAQQASLTEQRLTVES

binding [5]: binds
B4: RAPGEF2 (protein, UniProt Q9Y4G8 1-1499)
chain: MKPLAIPANHGVMGQQEKHSLPADFTKLHLTDSLHPQVTHVSSSHSGCSITSDSGSSSLSDIYQATESEAGDMDLSGLPETAVDSEDDDDEEDIERASDPLMSRDIVRDCLEKDPIDRTDDDIEQLLEFMHQLPAFANMTMSVRRELCAVMVFAVVERAGTIVLNDGEELDSWSVILNGSVEVTYPDGKAEILCMGNSFGVSPTMDKEYMKGVMRTKVDDCQFVCIAQQDYCRILNQVEKNMQKVEEEGEIVMVKEHRELDRTGTRKGHIVIKGTSERLTMHLVEEHSVVDPTFIEDFLLTYRTFLSSPMEVGKKLLEWFNDPSLRDKVTRVVLLWVNNHFNDFEGDPAMTRFLEEFENNLEREKMGGHLRLLNIACAAKAKRRLMTLTKPSREAPLPFILLGGSEKGFGIFVDSVDSGSKATEAGLKRGDQILEVNGQNFENIQLSKAMEILRNNTHLSITVKTNLFVFKELLTRLSEEKRNGAPHLPKIGDIKKASRYSIPDLAVDVEQVIGLEKVNKKSKANTVGGRNKLKKILDKTRISILPQKPYNDIGIGQSQDDSIVGLRQTKHIPTALPVSGTLSSSNPDLLQSHHRILDFSATPDLPDQVLRVFKADQQSRYIMISKDTTAKEVVIQAIREFAVTATPDQYSLCEVSVTPEGVIKQRRLPDQLSKLADRIQLSGRYYLKNNMETETLCSDEDAQELLRESQISLLQLSTVEVATQLSMRNFELFRNIEPTEYIDDLFKLRSKTSCANLKRFEEVINQETFWVASEILRETNQLKRMKIIKHFIKIALHCRECKNFNSMFAIISGLNLAPVARLRTTWEKLPNKYEKLFQDLQDLFDPSRNMAKYRNVLNSQNLQPPIIPLFPVIKKDLTFLHEGNDSKVDGLVNFEKLRMIAKEIRHVGRMASVNMDPALMFRTRKKKWRSLGSLSQGSTNATVLDVAQTGGHKKRVRRSSFLNAKKLYEDAQMARKVKQYLSNLELEMDEESLQTLSLQCEPATNTLPKNPGDKKPVKSETSPVAPRAGSQQKAQSLPQPQQQPPPAHKINQGLQVPAVSLYPSRKKVPVKDLPPFGINSPQALKKILSLSEEGSLERHKKQAEDTISNASSQLSSPPTSPQSSPRKGYTLAPSGTVDNFSDSGHSEISSRSSIVSNSSFDSVPVSLHDERRQRHSVSIVETNLGMGRMERRTMIEPDQYSLGSYAPMSEGRGLYATATVISSPSTEELSQDQGDRASLDAADSGRGSWTSCSSGSHDNIQTIQHQRSWETLPFGHTHFDYSGDPAGLWASSSHMDQIMFSDHSTKYNRQNQSRESLEQAQSRASWASSTGYWGEDSEGDTGTIKRRGGKDVSIEAESSSLTSVTTEETKPVPMPAHIAVASSTTKGLIARKEGRYREPPPTPPGYIGIPITDFPEGHSHPARKPPDYNVALQRSRMVARSSDTAGPSSVQQPHGHPTSSRPVNKPQWHKPNESDPRLAPYQSQGFSTEEDEDEQVSAV
